Values quoted from earlier work, collected in patent publication US11648199B2 (AI Therapeutics, Inc, priority 2014, dated 2023).

Settings: benzyl alcohol, chloroform, acetone, and acetonitrile; cited from earlier work

CO[C@H]1C[C@@H]2CC[C@@H](C)[C@@](O)(O2)C(=O)C(=O)N2CCCC[C@H]2C(=O)O[C@H]([C@H](C)C[C@@H]2CC[C@@H](O)[C@H](OC)C2)CC(=O)[C@H](C)/C=C(\C)[C@@H](O)[C@@H](OC)C(=O)[C@H](C)C[C@H](C)/C=C/C=C/C=C/1C [Rapamycin, (3 S,6R,7E,9R,10R,12R,14S,15E,17E,19E,21S,23 S,26R,27R,34aS)-9,10,12,13,-14,21,22,23,24,25,26,27,32,33,34,34a-hexadecahydro-9,27-dihydroxy-3-[(1R)-2-[(1S,3R,4R)-4-hydroxy-3-methoxycyclohexyl]-1-methylethyl]-10,21-dimethox-y-6,8,12,14,20,26-hexamethyl-23,27-epoxy-3H-pyrido[2,1-c][1,4]oxaazacyclohentriacontine-1,5,11,28,29(4H,6H,31H)-pentone]
solubility in organic solvents: freely soluble
